According to patent US20190241497A1, “METHODS FOR ANALYZING P-HYDROQUINONE LEVELS AND RATIOS” (priority 2017, published 2019):

Tested on: S. pombe culture
Assay: Succinate capping of alpha-tocotrienol hydroquinone in yeast (Example 3), LCMS/MS
Assay type: cell-based

Row | Structure (SMILES) | Unesterified hydroquinone (p-HQ) relative to bis-succinate (all samples, S. pombe treated with alpha-tocotrienol quinone (1 μM) for 5 hours, after succinic anhydride capping) | p-dHQ/(p-dHQ+p-Q) ratio, based on [bis-succinate]/([bis-succinate]+[quinone]) (S. pombe cultures after 16 hrs, treated with alpha-tocotrienol quinone (1 μM) 5 hours before harvesting, succinic anhydride capping, normalized for OD)
1 | CC(C)=CCC/C(C)=C/CC/C(C)=C/CCC(C)(O)CCc1c(C)c(O)c(C)c(C)c1O (stereo not drawn) [Unesterified hydroquinone, alpha-tocotrienol hydroquinone] | less than 1% | 
2 | CC(C)=CCC/C(C)=C/CC/C(C)=C/CC[C@@](C)(O)CCC1=C(C)C(=O)C(C)=C(C)C1=O [alpha-tocotrienol quinone] |  | 0.557+/−0.0012
